PMC5454536
No constants are given. Whether binding was seen depends on the method and setting. Some entries that bind do so weakly or less than the wild type.

Molecular target: T1, signal recognition particle (SRP): SRP protein Ffh with the 4.5S SRP RNA (E. coli) (UniProt P0AGD7)
T1 sequence: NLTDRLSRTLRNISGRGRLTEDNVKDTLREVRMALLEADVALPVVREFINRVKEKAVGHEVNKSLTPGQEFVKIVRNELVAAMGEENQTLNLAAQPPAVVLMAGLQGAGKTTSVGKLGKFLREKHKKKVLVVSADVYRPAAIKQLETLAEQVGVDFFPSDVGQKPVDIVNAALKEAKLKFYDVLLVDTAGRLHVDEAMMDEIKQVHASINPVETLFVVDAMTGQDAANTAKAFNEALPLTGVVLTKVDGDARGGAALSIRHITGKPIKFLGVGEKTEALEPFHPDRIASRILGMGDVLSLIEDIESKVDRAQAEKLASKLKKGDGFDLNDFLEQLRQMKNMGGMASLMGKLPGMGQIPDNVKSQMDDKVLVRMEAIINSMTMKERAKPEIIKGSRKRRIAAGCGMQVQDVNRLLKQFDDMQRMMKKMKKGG
Assay: cryo-EM structure; RNC_(1A9L)-85 or -135 (250 nM) with SRP, SR and SecYEG, GDP:AlFx, Buffer C (50 mM HEPES-KOH, 85 mM KOAc, 15 mM Mg(OAc)2, 0.02% DDM, 5 mM spermidine, 0.5 mM spermine); both purified

binding: binds
B1: SRP receptor (SR), FtsY (receptor, UniProt P10121 1-497)
chain: MAKEKKRGFFSWLGFGQKEQTPEKETEVQNEQPVVEEIVQAQEPVKASEQAVEEQPQAHTEAEAETFAADVVEVTEQVAESEKAQPEAEVVAQPEPVVEETPEPVAIEREELPLPEDVNAEAVSPEEWQAEAETVEIVEAAEEEAAKEEITDEELETALAAEAAEEAVMVVPPAEEEQPVEEIAQEQEKPTKEGFFARLKRSLLKTKENLGSGFISLFRGKKIDDDLFEELEEQLLIADVGVETTRKIITNLTEGASRKQLRDAEALYGLLKEEMGEILAKVDEPLNVEGKAPFVILMVGVNGVGKTTTIGKLARQFEQQGKSVMLAAGDTFRAAAVEQLQVWGQRNNIPVIAQHTGADSASVIFDAIQAAKARNIDVLIADTAGRLQNKSHLMEELKKIVRVMKKLDVEAPHEVMLTIDASTGQNAVSQAKLFHEAVGLTGITLTKLDGTAKGGVIFSVADQFGIPIRYIGVGERIEDLRPFKADDFIEALFARED
